PubChem BioAssay AID1259260 – Sanger Institute – 2017

Screen: 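Kinome knock-down with three anchor drugs to find synergy partners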 (primary screen)
System: human NCI-H716 colorectal cancer cells
Knock-down reagent: siRNA pool against human genes
Conditions: anchor drugs BYL719 (alpelisib) 1 µM, cetuximab 5 µg/ml or trametinib 10 nM, each at a dose chosen to harm viability only mildly; DMSO vehicle for the knock-down-alone arm
Measurement: 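Mean viability over replicates against non-targeting siRNA, robust z-score without drug, and per-drug synergy comparing combined with single treatments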
Scale: viability robust z-score, siRNA alone: higher = more surviving cells; below -3 called essential
Rule for the call: 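a knock-down counts as essential if its no-drug robust z-score is lower than -3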
Calls: active = essential (knock-down alone lowers viability); inactive = no essential effect
Here is a random part of 794 deposited reagents. Of all reagents, 13 (1.6%) got an active call. 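Calls reflect only knock-down without drug; synergy above 0.15 was grouped apart and does not change the call.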 Not all columns of the deposit are shown. Not stated in the record: the amount of reagent, the time to read-out.

Against PDK4 (pyruvate dehydrogenase kinase 4), the entry reads viability robust z-score, siRNA alone 0.602; inactive.
With knock-down of AURKA (aurora kinase A), the record shows viability robust z-score, siRNA alone -1.74; inactive.
For MPP2 (MAGUK p55 scaffold protein 2), the entry reads viability robust z-score, siRNA alone 0.602; inactive.
For TSKS (testis specific serine kinase substrate), the entry reads viability robust z-score, siRNA alone 0.602; inactive.
Depletion of PPP2R1A (protein phosphatase 2 scaffold subunit Aalpha) came out at: viability robust z-score, siRNA alone 0.602; inactive.
PIP4K2B (phosphatidylinositol-5-phosphate 4-kinase type 2 beta) showed viability robust z-score, siRNA alone 0.602; inactive.
With knock-down of APC (APC regulator of Wnt signaling pathway) the results were viability robust z-score, siRNA alone 0.214; inactive.
Against PIP4K2A (phosphatidylinositol-5-phosphate 4-kinase type 2 alpha) the deposit lists viability robust z-score, siRNA alone 0.531; inactive.
CDC42BPG (CDC42 binding protein kinase gamma) scored viability robust z-score, siRNA alone 0.602; inactive.
Silencing of CNOT1 (CCR4-NOT transcription complex subunit 1) gave: viability robust z-score, siRNA alone -2.62; inactive.

A portion of the results above, for reference:
PIP4K2B (phosphatidylinositol-5-phosphate 4-kinase type 2 beta) — viability robust z-score, siRNA alone = 0.602; outcome = inactive
APC (APC regulator of Wnt signaling pathway) — viability robust z-score, siRNA alone = 0.214; outcome = inactive
PIP4K2A (phosphatidylinositol-5-phosphate 4-kinase type 2 alpha) — viability robust z-score, siRNA alone = 0.531; outcome = inactive
CDC42BPG (CDC42 binding protein kinase gamma) — viability robust z-score, siRNA alone = 0.602; outcome = inactive

Continued:
Silencing of PCK2 (phosphoenolpyruvate carboxykinase 2, mitochondrial) resulted in: viability robust z-score, siRNA alone 0.602; inactive.
With knock-down of PANK2 (pantothenate kinase 2) the results were viability robust z-score, siRNA alone -0.742; inactive.
NUP98 (nucleoporin 98 and 96 precursor) gave viability robust z-score, siRNA alone -3.96; active.
Depletion of CAMK1D (calcium/calmodulin dependent protein kinase ID) gave: viability robust z-score, siRNA alone -1.16; inactive.
MAPK1 (mitogen-activated protein kinase 1) scored viability robust z-score, siRNA alone -1.03; inactive.
EIF2AK2 (eukaryotic translation initiation factor 2 alpha kinase 2) scored viability robust z-score, siRNA alone -0.123; inactive.
Depletion of NME7 (NME/NM23 family member 7) gave: viability robust z-score, siRNA alone 0.602; inactive.
Depletion of MAST4 came out at: viability robust z-score, siRNA alone 0.602; inactive.
For AMHR2 (anti-Mullerian hormone receptor type 2) the deposit lists viability robust z-score, siRNA alone -3.24; active.
For COQ8B (coenzyme Q8B), the values are viability robust z-score, siRNA alone 0.602; inactive.
Depletion of RPS6KA2 (ribosomal protein S6 kinase A2) came out at: viability robust z-score, siRNA alone -2.56; inactive.
After knock-down of PRKAA1 (protein kinase AMP-activated catalytic subunit alpha 1), the screen gave viability robust z-score, siRNA alone 0.602; inactive.
SPEG (striated muscle enriched protein kinase) showed viability robust z-score, siRNA alone 0.602; inactive.
Depletion of RUNX1 (RUNX family transcription factor 1) resulted in: viability robust z-score, siRNA alone -4.12; active.
Knock-down of DCLK3 (doublecortin like kinase 3) gave: viability robust z-score, siRNA alone -0.237; inactive.
For STK33 (serine/threonine kinase 33), the values are viability robust z-score, siRNA alone 0.602; inactive.
After knock-down of HUNK (hormonally up-regulated Neu-associated kinase), the record shows viability robust z-score, siRNA alone 0.602; inactive.
CDK10 (cyclin dependent kinase 10) showed viability robust z-score, siRNA alone -2.36; inactive.
